# Test results reported in PubChem BioAssay AID1741 (Vanderbilt High Throughput Screening Facility, 2009).
# Sequences of proteins named here, by UniProt entry; tags and fusion partners are left off.
# UniProt P08485, whole entry, looked up: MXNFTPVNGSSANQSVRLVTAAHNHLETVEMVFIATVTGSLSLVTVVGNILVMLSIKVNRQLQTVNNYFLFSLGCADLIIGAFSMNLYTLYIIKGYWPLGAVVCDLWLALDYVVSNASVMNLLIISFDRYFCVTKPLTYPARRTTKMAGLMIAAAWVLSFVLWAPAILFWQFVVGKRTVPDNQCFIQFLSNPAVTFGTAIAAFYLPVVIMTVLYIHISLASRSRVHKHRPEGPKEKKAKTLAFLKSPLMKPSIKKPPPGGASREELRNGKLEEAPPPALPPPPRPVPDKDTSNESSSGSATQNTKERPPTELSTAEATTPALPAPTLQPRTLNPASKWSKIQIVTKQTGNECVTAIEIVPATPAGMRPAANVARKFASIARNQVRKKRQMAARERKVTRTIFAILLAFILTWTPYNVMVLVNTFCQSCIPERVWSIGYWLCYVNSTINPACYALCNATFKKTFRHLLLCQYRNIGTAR
# The whole screen tested about 1,700 compounds, of which about 150 (8.8%) were called active. The inconclusive results got no clear call from the source; some entries with a clear call stand among them for comparison.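 Rule for the calls: active = fluorescence change differing from the plate's solvent-only control wells at 99.7% confidence in both duplicates, whether higher or lower; inconclusive = differs from solvent controls in only one of two duplicates; inactive = the rest.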
# Target: Muscarinic acetylcholine receptor M4 (Rattus norvegicus) (UniProt P08485)
# Assay: rat M4 muscarinic receptor activation – cell-based, agonist mode, counter-screen for M1 allosteric modulator project, confirmation (AID 1741)
# Details: CHO M4/Gqi5 cells, Fluo-4 calcium fluorescence, at 10 µM, actives lie on both sides
row,Compound,fluorescence change (max-min)
1,C/C(O)=c1/ccc2cccc3nc(C)nc1c23,active: 814
2,CCOC(=O)C(CC)n1cnc2c(nnn2-c2ccc(C)cc2)c1=O (configuration not stated),active: -70.6
3,COc1ccc(-c2cc(C(F)(F)F)nc(N3CCCCCC3)n2)cc1,inconclusive: -49.9
4,C=CCn1c(=O)c2c(nc3n2CC(C)CN3c2cccc(OC)c2)n(C)c1=O (configuration not stated),inconclusive: -86.7
5,Cc1cc(C)c2cc3c(ccn3C3OC[C@H](O)[C@H](O)[C@H]3O)cc2n1 (some centres not stated),inactive: 156
6,CCOC(=O)C1CCCN(Cc2cc(Br)c(OC)cc2OC)C1 (configuration not stated),inconclusive: -181
7,Cc1cccc2cc3c(N)c(C#N)sc3nc12,inconclusive: -23.2
8,CN1C=CC(=C2C(=O)c3ccccc3C2=O)C=C1,inconclusive: -56.7
9,CCOc1cccc(C2C(C(=O)c3ccc(C)o3)=C(O)C(=O)N2c2nccs2)c1 (configuration not stated),active: 125
10,COCCCNC(=O)CCCn1c(=O)[nH]c2ccccc2c1=O,inactive: -47.5
11,CC(=O)c1sc(NC(=O)C2(F)C(F)(F)C(F)(F)C(F)(F)C(F)(F)C2(F)F)nc1C,inconclusive: -14.4
12,CCCn1nnnc1SCC(=O)Nc1nnc(CC)s1,inconclusive: -60.4
13,c1ccc(Nc2nc(N3CCCCC3)nc(N3CCNCC3)n2)cc1,inactive: -22.9
14,Cn1c(=O)c2c(SCC(=O)c3ccccc3)nc(C3CC3)nc2n(C)c1=O,inactive: -44.4
15,c1ccc2c(c1)CCCN2Cc1nnc2n1CCCCC2,inactive: -33.2
16,COc1ccc(CCNC2=NCC(C)S2)cc1 (configuration not stated),inconclusive: -53.3
17,CCOC(=O)C1CCCN(C(=O)Cn2cccc2C(=O)c2ccccc2)C1 (configuration not stated),inactive: -35.9
18,COc1cccc(-c2cc(C(F)(F)F)n3ncc(C(=O)NCC4CCCO4)c3n2)c1 (configuration not stated),inactive: -53.8
19,CCn1c(=O)cc(OCC(=O)NCCCN2CC(C)CC(C)C2)c2ccccc21 (configuration not stated),inconclusive: -129
20,Cc1nnc(C)n1/N=C/c1cc(Br)cc(Br)c1O,inconclusive: 99.2
21,O=C(Nc1ccccc1NC(=O)c1c(F)c(F)c(F)c(F)c1F)c1c(F)c(F)c(F)c(F)c1F,inconclusive: -44.7
22,CCOc1ccc(C2C=C(c3ccc(C)cc3)Nc3ncnn32)cc1 (configuration not stated),inconclusive: 111
23,COc1ccc(CCNc2oc(Cc3ccccc3)nc2C#N)cc1OC,inconclusive: -75.3
24,O=C(Nc1ncnc2sc3c(c12)CCCCC3)c1ccco1,inactive: -52.8

# Part of the list above in order of heavy-atom count, high to low:
row,Compound,fluorescence change (max-min)
21,O=C(Nc1ccccc1NC(=O)c1c(F)c(F)c(F)c(F)c1F)c1c(F)c(F)c(F)c(F)c1F,inconclusive: -44.7
19,CCn1c(=O)cc(OCC(=O)NCCCN2CC(C)CC(C)C2)c2ccccc21 (configuration not stated),inconclusive: -129
4,C=CCn1c(=O)c2c(nc3n2CC(C)CN3c2cccc(OC)c2)n(C)c1=O (configuration not stated),inconclusive: -86.7
14,Cn1c(=O)c2c(SCC(=O)c3ccccc3)nc(C3CC3)nc2n(C)c1=O,inactive: -44.4
2,CCOC(=O)C(CC)n1cnc2c(nnn2-c2ccc(C)cc2)c1=O (configuration not stated),active: -70.6
5,Cc1cc(C)c2cc3c(ccn3C3OC[C@H](O)[C@H](O)[C@H]3O)cc2n1 (some centres not stated),inactive: 156
10,COCCCNC(=O)CCCn1c(=O)[nH]c2ccccc2c1=O,inactive: -47.5
15,c1ccc2c(c1)CCCN2Cc1nnc2n1CCCCC2,inactive: -33.2
12,CCCn1nnnc1SCC(=O)Nc1nnc(CC)s1,inconclusive: -60.4
7,Cc1cccc2cc3c(N)c(C#N)sc3nc12,inconclusive: -23.2

# Next entries.

row,Compound,fluorescence change (max-min)
1,CCn1c(C(=O)N2CCC(C(=O)N3CCN(c4ccccn4)CC3)CC2)cc2sccc21,inconclusive: -60.1
2,CCOC(=O)C1CCCN(C(=O)c2cc3nc(-c4cccc(OC)c4)cc(C(F)(F)F)n3n2)C1 (configuration not stated),inactive: -28.2
3,O=C(COC(=O)CN1C(=O)C2CC=CCC2C1=O)Nc1cc(C(F)(F)F)ccc1N1CCOCC1 (configuration not stated),inconclusive: -193
4,CCc1ccc(CNCc2cccnc2)cc1,inconclusive: -86.8
5,CCCCCCNC(=O)C(C#N)c1nc2ccccc2nc1N1CCOCC1 (configuration not stated),active: 1620
6,O=C(Nc1ccccc1)c1ccccc1OCC(O)CN1C(=O)c2ccccc2S1(=O)=O (configuration not stated),inconclusive: -58.6
7,Cc1cc(C)n2nc(SCC(=O)N(C)Cc3ccccc3)nc2n1,inconclusive: -111
8,COc1cccc2cc(-c3nnc(SCC(=O)Nc4nc(C)cs4)n3C)oc12,inactive: -59.9
9,COc1ccc(CCNc2oc(COc3ccccc3F)nc2C#N)cc1OC,active: -85.2
10,CCOC(=O)N1CCN(C2=Nc3cccc4cccc2c34)CC1,inconclusive: 106
11,CCn1c(SCC(=O)Nc2ccccc2N2CCCCC2)nc2c1c(=O)n(C)c(=O)n2C,inactive: -12.9
12,COc1ccc(C2C(C(=O)c3cccs3)=C(O)C(=O)N2c2nncs2)cc1 (configuration not stated),active: 339
13,Cc1c(C(=O)NCC2COc3ccccc3O2)oc2ccc(S(=O)(=O)N3CCOCC3)cc12 (configuration not stated),inconclusive: -115
14,Nc1ccc2nc(-c3ccc(Cl)cc3)[nH]c2c1,inactive: -79.5
15,Cc1c(Nc2nc3ccccc3nc2N2CCN(c3ccccc3)CC2)c(=O)n(-c2ccccc2)n1C,inactive: -10.8
16,COc1ccc(OCC(O)Cn2c(=N)n(CCN3CCOCC3)c3ccccc32)cc1 (configuration not stated),inactive: -30
17,CC(C(=O)NCC1CCCO1)n1cccc1C(=O)c1ccccc1 (configuration not stated),inconclusive: -61.9
18,O=C(Nc1ccc2c(c1)OCO2)C1Cc2ccccc2CN1S(=O)(=O)c1cccs1 (configuration not stated),inactive: -21.5
19,CCCCCCOC(=O)C(C#N)c1nc2ccccc2nc1N1CCN(C)CC1 (configuration not stated),inconclusive: -118
20,CCC1Oc2ccc(C)cc2N(CC(=O)N2CCN(c3ccc(F)cc3)CC2)C1=O (configuration not stated),inconclusive: -42.4
21,Oc1ccc(CNc2ccc(F)cc2)c2cccnc12,inconclusive: -92.1
22,Cc1cc(-c2ccccc2)n(-c2ccc(C(=O)N3CCN(c4ncccn4)CC3)cc2)n1,inconclusive: -97.3
23,CC(C)(C)NC(=O)COC(=O)c1snc(C(=O)NC2CCCCC2)c1N,inconclusive: -133
